At least one compound was matched to its structure with a doubt left.
Tested on: blood ammonia in UCD patients
Assay: Pooled ammonia analyses from short term studies
Type: in vivo, human
Settings: pooled analyses of short term studies; p=0.008

With O=C(CCCc1ccccc1)OCC(COC(=O)CCCc1ccccc1)OC(=O)CCCc1ccccc1 [HPN-100, benzenebutanoic acid, 1′,1″-(1,2,3-propanetriyl) ester] the “24 hour ammonia AUC0-24, mean [SD]” value was 627 [302] μmol/L.
